Assay results reported in patent US20220226375A1 (CRISPR THERAPEUTICS, published 2022).

Chains of the proteins cited; added tags and fusions are not shown. Residues count along the entry.
UniProt P20138, 18-259 limits assumed: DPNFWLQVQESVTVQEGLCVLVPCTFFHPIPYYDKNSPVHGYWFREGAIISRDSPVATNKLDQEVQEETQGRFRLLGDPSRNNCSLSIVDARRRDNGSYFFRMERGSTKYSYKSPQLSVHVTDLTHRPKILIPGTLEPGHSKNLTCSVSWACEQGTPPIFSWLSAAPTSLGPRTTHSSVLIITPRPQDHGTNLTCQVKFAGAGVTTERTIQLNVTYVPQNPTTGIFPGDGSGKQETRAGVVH

The binders below were run against T1, CD33 protein (AcroBiosystems) conjugated to biotin (UniProt P20138 18-259, biotinylated (site not stated)) (assay: flow cytometry; cell-surface CAR on edited T cells labelled with biotinylated CD33 protein and streptavidin-APC).
T1 construct: Soluble bought reagent used at 2 ug/uL with streptavidin-APC to label cell-surface anti-CD33 CAR; also called biotinylated CD33 protein, CD3-H82E7
Description: About one (1) week post electroporation, gene-edited T cells were analyzed by flow cytometry to assess the percentage of the cell population that expressed an anti-CD33 CAR. Labeling of cell-surface anti-CD33 CAR was done with a combination of a CD33 protein (AcroBiosystems) conjugated to biotin and a streptavidin-APC secondary reagent (FIG. 1A, FIG. 1B and FIG. 1C). […] In contrast, certain T cells generated with a TRAC and B2M gene disruption and a CAR construct did result in a high percentage of the population that expressed an anti-CD33 CAR. […] However, not all T cells prepared with a CAR construct had CAR expression. […] Indeed, this outcome was not altered by switching the CAR co-stimulatory domain (e.g., CTX-964 compared to CTX-964b).

| binding result | Binder |
| --- | --- |
| binds | CTX-981b CAR (anti-CD33 CAR, Antibody C scFv VL-VH, 41BB co-stimulatory domain, CD3z) (other) DIQLTQSPSTLSASVGDRVTITCRASESLDNYGIRFLTWFQQKPGKAPKLLMYAASNQGSGVPSRFSGSGSGTEFTLTISSLQPDDFATYYCQQTKEVPWSFGQGTKVEVKGGGGSGGGGSGGGGSEVQLVQSGAEVKKPGSSVKVSCKASGYTITDSNIHWVRQAPGQSLEWIGYIYPYNGGTDYNQKFKNRATLTVDNPTNTAYMELSSLRSEDTAFYYCVNGNPWLAYWGQGTLVTVSSSAAAFVPVFLPAKPTTTPAPRPPTPAPTIASQPLSLRPEACRPAAGGAVHTRGLDFACDIYIWAPLAGTCGVLLLSLVITLYCNHRNRKRGRKKLLYIFKQPFMRPVQTTQEEDGCSCRFPEEEEGGCELRVKFSRSADAPAYQQGQNQLYNELNLGRREEYDVLDKRRGRDPEMGGKPRRKNPQEGLYNELQKDKMAEAYSEIGMKGERRRGKGHDGLYQGLSTATKDTYDALHMQALPPR |
| binds | CTX-981 CAR (anti-CD33 CAR, Antibody C scFv VL-VH, CD28 co-stimulatory domain, CD3z) (other) DIQLTQSPSTLSASVGDRVTITCRASESLDNYGIRFLTWFQQKPGKAPKLLMYAASNQGSGVPSRFSGSGSGTEFTLTISSLQPDDFATYYCQQTKEVPWSFGQGTKVEVKGGGGSGGGGSGGGGSEVQLVQSGAEVKKPGSSVKVSCKASGYTITDSNIHWVRQAPGQSLEWIGYIYPYNGGTDYNQKFKNRATLTVDNPTNTAYMELSSLRSEDTAFYYCVNGNPWLAYWGQGTLVTVSSSAAAFVPVFLPAKPTTTPAPRPPTPAPTIASQPLSLRPEACRPAAGGAVHTRGLDFACDIYIWAPLAGTCGVLLLSLVITLYCNHRNRSKRSRLLHSDYMNMTPRRPGPTRKHYQPYAPPRDFAAYRSRVKFSRSADAPAYQQGQNQLYNELNLGRREEYDVLDKRRGRDPEMGGKPRRKNPQEGLYNELQKDKMAEAYSEIGMKGERRRGKGHDGLYQGLSTATKDTYDALHMQALPPR |
| binds | CTX-970 CAR (anti-CD33 CAR, Antibody B scFv VL-VH, CD28 co-stimulatory domain, CD3z) (other, also called CTX-970 CAR T cells) DIQMTQSPSSLSASVGDRVTINCKASQDINSYLSWFQQKPGKAPKTLIYRANRLVDGVPSRFSGSGSGQDYTLTISSLQPEDFATYYCLQYDEFPLTFGGGTKVEIKGGGGGSGGGGSGGGGSQVQLVQSGAEVKKPGASVKVSCKASGYTFTNYDINWVRQAPGQGLEWIGWIYPGDGSTKYNEKFKAKATLTADTSTSTAYMELRSLRSDDTAVYYCASGYEDAMDYWGQGTTVTVSSSAAAFVPVFLPAKPTTTPAPRPPTPAPTIASQPLSLRPEACRPAAGGAVHTRGLDFACDIYIWAPLAGTCGVLLLSLVITLYCNHRNRSKRSRLLHSDYMNMTPRRPGPTRKHYQPYAPPRDFAAYRSRVKFSRSADAPAYQQGQNQLYNELNLGRREEYDVLDKRRGRDPEMGGKPRRKNPQEGLYNELQKDKMAEAYSEIGMKGERRRGKGHDGLYQGLSTATKDTYDALHMQALPPR |
